# Results of single-concentration screens

Measurements from “University of Dundee, Small-Polar-MMV Screening Library” (2021), ChEMBL document CHEMBL3988442.

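Whole-parasite assay of Trypanosoma brucei over 72 hours; the read-out is not stated. Concentration: 30 µM. Direction is inferred from retests: higher values go with stronger inhibition. Values scatter widely below zero; nearly all retest evidence comes from the higher of the two concentrations used. Size under these conditions: about 64,000 compounds, about 940 of them at 50% or above in at least one test.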

Results are given as percent effect. The record does not define 0% and 100%; most values in the screen are far below 50% and negative numbers occur (in some assays of this library far below -100). The compounds are a random part of those screened.

| # | SMILES | percent effect |
|---|---|---|
| 1 | `Cn1ccnc1SCC(=O)NCCC1CCCO1` (stereo not given) | -15.28% |
| 2 | `Cc1cccn2c(=O)cc(CN3CCCCC3Cn3cncn3)nc12` (stereo not given) | -14.04% |
| 3 | `O=C(O)C(F)(F)F.[H][C@]12C[C@@H](C(=O)NCCc3cccs3)CO[C@@]1([H])CCN(CC1CC1)C2` | -52.96% |
| 4 | `O=C(NC[C@@H]1CCCO1)c1cccnc1N1CCCC1c1ccccn1` (stereo not given in full) | 19.03% |
| 5 | `COc1ccc(C2CN(c3cc(C)ncn3)CCN2C(C)=O)cc1` (stereo not given) | -5.003% |
| 6 | `CCOCC(=O)NC(C)Cc1ccccc1Br` (stereo not given) | -2.376% |
| 7 | `CCCC(C)(C)NC(=O)c1cnc(CC)s1` | -51.02% |
| 8 | `Cc1cc(N2CCC(NC(C)Cc3ccsc3)CC2)nc(N)n1` (stereo not given) | 101% |
| 9 | `Cc1noc(C)c1CN1Cc2ccnn2CC(C(=O)NCC2CC2)C1.O=C(O)C(F)(F)F.O=C(O)C(F)(F)F` (stereo not given) | -17.09% |
| 10 | `CCOc1ccccc1-c1noc(CN(C)Cc2cnn(C)c2)n1` | -19.33% |
| 11 | `O=C(NC1CC1)NC(c1ccc(F)cc1)C1CC1` (stereo not given) | -18.44% |
| 12 | `CN(C)CCN(Cc1cccc(F)c1)C(=O)c1ccn(C)c(=O)c1` | -64.32% |
| 13 | `CCCN1CCC(CC(=O)N[C@H](C(=O)O)c2cccc(F)c2F)CC1` | 10.97% |
| 14 | `Cc1ccc(CN2CCC(NC(=O)c3scnc3C)CC2)cc1` | -19.7% |
| 15 | `COCCN1CCc2cc(C(=O)O)c(-c3ccoc3)nc2CC1.O=C(O)C(F)(F)F.O=C(O)C(F)(F)F` | -18.81% |
| 16 | `O=S(=O)(NC1CCCCC12OCCO2)c1cc(Cl)cc(Cl)c1` (stereo not given) | -16.23% |
| 17 | `CC(C)N(C)Cc1cncc2c1CCN(CC(=O)N(C)C)C2.Cl.Cl.Cl` | 7.599% |
| 18 | `Cc1noc(C(C)Nc2ccc3oc(=O)[nH]c3c2)n1` (stereo not given) | -11.28% |
| 19 | `CC(C)(C)c1c[nH]c([C@@H]2COCCN2C2CCCCC2)n1` | 4.049% |
| 20 | `Cc1cc(N2CCC(CC(N)=O)CC2)nc(-c2ccncc2)n1` | 0.7336% |
| 21 | `O=C1NC2(CCN(Cc3cccnc3)CC2)CC1c1ccncc1` (stereo not given) | -6.18% |
| 22 | `O=C(CCn1ccccc1=O)N1CCN(Cc2cccc(Cl)c2)CC1` | 5.375% |
| 23 | `CCCn1nc2c(cc1=O)CN(Cc1ncc(C(C)(C)C)o1)CC2` | 1.353% |
| 24 | `Cc1cccc(CN2CCC(c3nnsc3S(C)(=O)=O)CC2)c1` | 11.08% |
| 25 | `COc1ccc(C(C)NS(=O)(=O)c2ccc3c(c2)CCC(=O)N3)cc1F` (stereo not given) | 95.9% |
| 26 | `CCn1c(CN2CCCN(C(=O)OC)CC2)nc2c(F)cccc21` | -17.12% |
| 27 | `Cc1ccc(OCCN(C)S(=O)(=O)N2CCOCC2)cc1` | -44.06% |
| 28 | `COc1ccc(C2(NC(=O)CCn3cncn3)CCCCC2)cc1` | 15.89% |
| 29 | `Cc1cnn(CC2CCCN2C(=O)c2ccc3cc[nH]c3c2)c1` (stereo not given) | 1.08% |
| 30 | `COCCCNc1c(-c2ccc(Cl)cc2)c(=O)c1=O` | 13.47% |
| 31 | `O=C(c1ccc(F)cc1Cl)N1CCn2c(nnc2C(F)(F)F)C1` | -46.81% |
| 32 | `CCOCCN1CCN(CCOC)CC1C` (stereo not given) | 2.192% |
| 33 | `COCCOCC(=O)Nc1nc2c(OC)cc(F)cc2s1` | -16.41% |
| 34 | `CC(C)Cc1noc(CN(C)C2CCCC2)n1` | -5.614% |
| 35 | `Cc1ccc(NC2CCN(C(=O)Cc3csc(C)n3)CC2)nn1` | -33.69% |
| 36 | `CSc1[nH]nc(NC(=O)c2cccnc2)c1C#N` | -0.07103% |
| 37 | `Cc1nc(-c2ccc(Cl)cc2)n(CC(=O)NC(C)C)c(=O)c1CCO` | -19.67% |
| 38 | `CSCCC(C)(O)CNC(=O)c1ccsc1` (stereo not given) | 2.674% |
| 39 | `O=C(O)C(F)(F)F.O=C(O)C(F)(F)F.c1csc(CN2CCC3(CCCN3CC3CC3)CC2)n1` | -42.49% |
| 40 | `O=C(NCCCN1CCOCC1)C1CCCN(Cc2ccco2)C1` (stereo not given) | -15.59% |
| 41 | `CCn1ncnc1C(C)NC(=O)C1CCN(Cc2ccco2)CC1` (stereo not given) | -171.6% |
| 42 | `CC1CCCN(S(=O)(=O)NCc2ccccc2Cn2cncn2)C1` (stereo not given) | -1.091% |
| 43 | `COCCn1cc(CC(=O)Nc2nc3c(s2)CCC3)c2ccccc21` | 6.455% |
| 44 | `CN(C)c1nc(NCCCN2CCc3ccccc32)ncc1F` | -2.481% |
| 45 | `COc1ccc(N2CCN(CC(O)c3ccc(C)cc3C)CC2)cc1` (stereo not given) | -19.62% |
| 46 | `O=C(O)C(F)(F)F.c1csc(CN2CCn3c(Cn4cncn4)cnc3C2)n1` | 17.5% |
| 47 | `COCCNC(=O)NC1CCN(c2cnn(C)c2)C1` (stereo not given) | -8.526% |
| 48 | `Cc1n[nH]c(C)c1C1COCCN1C(=O)c1cccc(F)c1F` (stereo not given) | 0.1487% |
| 49 | `Cc1cccn2c(=O)cc(OC(=O)c3ccccc3)nc12` | -46.92% |
| 50 | `O=C(NCc1ccccc1Cn1cncn1)C1CC1` | 17.1% |
| 51 | `c1cn(CC2CCOCC2)c(-c2cc(CN3CCCC3)cs2)n1` | -21.45% |
| 52 | `CCN1CCC(NC(=O)Cc2csc(C(C)(C)C)n2)CC1` | 0.3343% |
| 53 | `CNC(=O)CN1CCOCC2(CCCN(Cc3ccc(F)cc3)C2)C1.O=C(O)C(F)(F)F.O=C(O)C(F)(F)F` (stereo not given) | -17.48% |
| 54 | `Cc1nc(CN2CCOC(Cn3cncn3)C2)nc2ccccc12` (stereo not given) | 0.1392% |
| 55 | `Cn1ccc(-c2cc(C(=O)N3CCC(O)CC3)c3ccccn23)n1` | -34.77% |
| 56 | `CN(Cc1ccsc1)Cc1ccc(C2CCCCO2)o1` (stereo not given) | -35.66% |
| 57 | `Cc1cccc(CN2CCC3(CCCN(C(=O)c4ccoc4)C3)C2=O)n1.O=C(O)C(F)(F)F` (stereo not given) | -36.33% |
| 58 | `CC(C)(CC(=O)Nc1cccc(Oc2ccccn2)c1)C(=O)O` | -23.89% |
| 59 | `Cn1ccnc1CN1CCCC2(CCN(CC3CCCO3)CC2)C1.O=C(O)C(F)(F)F.O=C(O)C(F)(F)F` (stereo not given) | 1.212% |
| 60 | `CCc1nnc2n1CCN(Cc1ncc(-c3ccc(Cl)cc3)o1)C2` | -0.05411% |
| 61 | `CC(C)Oc1cccc(C(O)CNC(=O)CCc2ccncc2)c1` (stereo not given) | -46.57% |
| 62 | `Cc1cc(NC(=O)c2ccc(C)c(F)c2)[nH]n1` | 33.41% |
| 63 | `CNc1ncc(C(=O)N2CC[C@@](O)(C3CCOCC3)[C@H](C)C2)cn1` | -34.71% |
| 64 | `COCCc1nc(CSc2ccncc2)n(C)n1` | -3.078% |
| 65 | `CC(C)NC(=O)c1ccc2c(c1)C(c1nc[nH]n1)CN2S(C)(=O)=O` (stereo not given) | -4.065% |
| 66 | `Cc1cc(C)n(CC2CN(c3nnc(C)c(C)c3C#N)CCO2)n1` (stereo not given) | 5.324% |
| 67 | `Cc1ncc(CN2CC[C@@](C)(O)[C@H](Oc3cccc(F)c3)C2)cn1` | -46.55% |
| 68 | `CN1C[C@@H](C(=O)NC2CC2)[C@@]2(COc3ccc(F)cc3C2=O)C1` | -30% |
| 69 | `CC(CCc1ccccc1)N1CCC(C(=O)Nc2ccccn2)CC1` (stereo not given) | -37.89% |
| 70 | `CCSCc1nc(O)c2nnn(C3CCN(Cc4ccco4)CC3)c2n1` | -18.87% |
| 71 | `CSc1ccc(C(C(=O)O)N2CCOCC2)cc1` (stereo not given) | -11.41% |
| 72 | `CCc1c(C)sc2nc3n(CC(N)=O)nc(SC)n3c(=O)c12` | -23.92% |
| 73 | `Cc1ccc(-c2ncc(C(=O)NCCS(N)(=O)=O)s2)c(C)c1` | -8.34% |
| 74 | `O=C(O)C(F)(F)F.[H][C@@]12COC[C@]1(C(=O)NCCc1cccs1)CN(C)C2` | -2.013% |
| 75 | `COCC(=O)N1CCC(c2nc3ccc(N4CCCC4)cn3n2)CC1.O=C(O)C(F)(F)F` | -11.36% |
| 76 | `COc1cc(F)ccc1C(C(=O)O)N(C)CCN1CCOCC1` (stereo not given) | -2.135% |
| 77 | `Cc1nc(C(=O)N2CCN(c3ccc(Cl)c(Cl)c3)CC2)cs1` | 12.74% |
| 78 | `CN(Cc1nccn1C)C(=O)c1cccc(CCC(C)(C)O)c1` | 11.05% |
| 79 | `CSc1ccc(CCN2CCN([C@H]3CCCC[C@@H]3O)CC2)cc1` | 10.31% |
| 80 | `CC(NC(=O)CCCc1nc(C(C)(C)C)no1)c1ccccn1` (stereo not given) | 1.922% |
| 81 | `COc1ccccc1CNC(=O)CNCCn1cc(C)cn1` | 13.17% |
| 82 | `CS(=O)(=O)NC1CCN(C(=O)c2ccc(Br)cc2)C1` (stereo not given) | -18.14% |
| 83 | `COc1cccc2c1OCC(C(=O)N1CCN(CCS(C)(=O)=O)CC1)C2` (stereo not given) | -22.64% |
| 84 | `CN(C)CCN1CCOCC12CCN(C(=O)C1CC1)CC2.O=C(O)C(F)(F)F.O=C(O)C(F)(F)F` | -6.593% |
| 85 | `CNS(=O)(=O)c1cccc(C(C)NCc2ccccc2OC)c1` (stereo not given) | -26.49% |
| 86 | `CNC(=O)Cc1noc(-c2cc3c(s2)CCC(C)C3)n1` (stereo not given) | -11.27% |

Some entries from above, unchanged:

| SMILES | percent effect |
|---|---|
| `Cc1cnn(CC2CCCN2C(=O)c2ccc3cc[nH]c3c2)c1` (stereo not given) | 1.08% |
| `Cc1nc(CN2CCOC(Cn3cncn3)C2)nc2ccccc12` (stereo not given) | 0.1392% |
| `CSc1ccc(CCN2CCN([C@H]3CCCC[C@@H]3O)CC2)cc1` | 10.31% |
| `Cc1ccc(NC2CCN(C(=O)Cc3csc(C)n3)CC2)nn1` | -33.69% |
| `CN(C)CCN1CCOCC12CCN(C(=O)C1CC1)CC2.O=C(O)C(F)(F)F.O=C(O)C(F)(F)F` | -6.593% |
| `O=C1NC2(CCN(Cc3cccnc3)CC2)CC1c1ccncc1` (stereo not given) | -6.18% |
| `CCN1CCC(NC(=O)Cc2csc(C(C)(C)C)n2)CC1` | 0.3343% |
| `O=S(=O)(NC1CCCCC12OCCO2)c1cc(Cl)cc(Cl)c1` (stereo not given) | -16.23% |
| `Cc1noc(C(C)Nc2ccc3oc(=O)[nH]c3c2)n1` (stereo not given) | -11.28% |